Results taken from paper PMC10837946.
No constants are given. Whether binding was seen depends on the method and setting. Binding seen in cells or lysates may run through a third protein. Some entries that bind do so weakly or less than the wild type. Where a sequence is shown, tags or fusion partners need not be part of it.

By UniProt entry, the sequences of proteins in these tests, tags left out.
UniProt O95832: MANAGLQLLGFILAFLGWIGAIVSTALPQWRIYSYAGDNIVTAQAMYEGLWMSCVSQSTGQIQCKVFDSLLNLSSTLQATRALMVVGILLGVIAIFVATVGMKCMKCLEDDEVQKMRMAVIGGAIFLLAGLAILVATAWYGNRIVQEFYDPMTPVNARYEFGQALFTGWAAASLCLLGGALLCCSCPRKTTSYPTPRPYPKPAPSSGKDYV

Biological target: T1, Ubiquitin-specific protease 40 (HA-USP40) (UniProt Q9NVE5)
T1 sequence: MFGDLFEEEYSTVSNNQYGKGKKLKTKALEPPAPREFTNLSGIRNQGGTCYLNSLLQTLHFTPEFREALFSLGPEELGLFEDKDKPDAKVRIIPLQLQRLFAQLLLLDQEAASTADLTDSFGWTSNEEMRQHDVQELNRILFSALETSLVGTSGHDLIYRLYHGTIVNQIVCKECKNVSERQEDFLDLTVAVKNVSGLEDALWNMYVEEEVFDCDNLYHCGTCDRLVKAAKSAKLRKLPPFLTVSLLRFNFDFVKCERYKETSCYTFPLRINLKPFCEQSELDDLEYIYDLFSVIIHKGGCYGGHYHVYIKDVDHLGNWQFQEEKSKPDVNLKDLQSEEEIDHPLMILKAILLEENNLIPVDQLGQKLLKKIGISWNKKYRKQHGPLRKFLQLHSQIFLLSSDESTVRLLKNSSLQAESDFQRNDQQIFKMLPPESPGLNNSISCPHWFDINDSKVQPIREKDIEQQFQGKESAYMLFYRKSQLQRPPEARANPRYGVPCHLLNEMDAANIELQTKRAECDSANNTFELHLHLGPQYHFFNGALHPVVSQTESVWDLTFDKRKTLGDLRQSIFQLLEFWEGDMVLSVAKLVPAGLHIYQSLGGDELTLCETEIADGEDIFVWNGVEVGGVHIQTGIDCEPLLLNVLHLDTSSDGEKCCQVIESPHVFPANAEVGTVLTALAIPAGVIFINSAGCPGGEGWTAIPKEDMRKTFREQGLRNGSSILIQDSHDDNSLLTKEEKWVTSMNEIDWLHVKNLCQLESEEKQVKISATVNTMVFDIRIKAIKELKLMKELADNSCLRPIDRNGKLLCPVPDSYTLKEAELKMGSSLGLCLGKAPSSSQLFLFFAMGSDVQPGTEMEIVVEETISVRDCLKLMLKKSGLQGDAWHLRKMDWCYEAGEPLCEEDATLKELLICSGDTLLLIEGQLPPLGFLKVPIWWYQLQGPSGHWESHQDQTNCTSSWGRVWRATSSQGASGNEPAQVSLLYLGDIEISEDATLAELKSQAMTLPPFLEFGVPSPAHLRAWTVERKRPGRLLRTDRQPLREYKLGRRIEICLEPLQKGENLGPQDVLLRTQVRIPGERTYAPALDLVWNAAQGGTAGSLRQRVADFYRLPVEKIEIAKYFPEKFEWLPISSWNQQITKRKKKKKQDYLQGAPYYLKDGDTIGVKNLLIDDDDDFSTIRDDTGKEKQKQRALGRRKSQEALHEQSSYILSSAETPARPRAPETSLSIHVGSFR
Test: co-IP; HA-USP40 and Claudin1 plasmids co-transfected into Huh7 and MHCC97H cells for 48 h; IP lysis buffer; magnetic bead-antibody complex incubated with the lysate at 4 °C overnight; western blotting

## Claudin1 (from UniProt O95832 1-211)
  binding: binds
